Results: patent US7732416B2, “Avermectins substituted in the 4″-position having pesticidal properties” (Merial Limited, priority 2001, dated 2010)
Some of these results come from one statement about several compounds together.

Tests used:
Format in all cases: in vivo
Spodoptera littoralis [1] = test: Example B1 Activity against Spodoptera littoralis (sprayed soya bean plants); conditions: 12.5 ppm spray liquor, first-stage caterpillars, 3 days
Heliothis virescens = test: Example B3 Activity against Heliothis virescens (eggs on filter paper); conditions: 0.8 ml test solution on 0- to 24-hour-old eggs, evaluation after 6 days
Tetranychus urticae = test: Example B7 Activity against Tetranychus urticae (sprayed bean plants); conditions: 12.5 ppm spray liquor, mixed population, 25° C., 6 days
Spodoptera littoralis [2] = test: Example B2 Activity against Spodoptera littoralis, systemic (maize seedlings); conditions: maize seedlings 6 days in test solution, L1 larvae on cut leaves, 4 days

Measured: reduction in the pest population

CCC(C)C1OC2(C=CC1C)CC1CC(CC=C(C)C(OC3CC(OC)C(OC4CC(OC)C(N(C)Cc5ccc(F)cc5Cl)C(C)O4)C(C)O3)C(C)C=CC=C3COC4C(O)C(C)=CC(C(=O)O1)C34O)O2 (centres unmarked) [2.045]
more than 80%: all assays above

CCC(C)C1OC2(C=CC1C)CC1CC(CC=C(C)C(OC3CC(OC)C(OC4CC(OC)C(NC(CC(=O)OC)CC(=O)OC)C(C)O4)C(C)O3)C(C)C=CC=C3COC4C(O)C(C)=CC(C(=O)O1)C34O)O2 (centres unmarked) [1.049]
more than 80%: Tetranychus urticae | Spodoptera littoralis [2]

CCC(C)[C@H]1O[C@]2(C=C[C@@H]1C)C[C@@H]1C[C@@H](C/C=C(\C)[C@@H](O[C@H]3C[C@H](OC)[C@@H](O[C@H]4C[C@H](OC)[C@H](N(C)Cc5ccc(-c6ccccc6)cc5)[C@H](C)O4)[C@H](C)O3)C(C)/C=C/C=C3\CO[C@@H]4[C@H](O)C(C)=C[C@@H](C(=O)O1)[C@]34O)O2 (some centres unmarked) [2.080]
more than 80%: Spodoptera littoralis [1] | Heliothis virescens | Spodoptera littoralis [2]

CCOC(=O)C(C)C(C)N[C@@H]1[C@H](C)O[C@@H](O[C@H]2[C@H](C)O[C@@H](O[C@@H]3/C(C)=C/C[C@@H]4C[C@@H](C[C@]5(C=C[C@H](C)[C@@H](C(C)CC)O5)O4)OC(=O)[C@@H]4C=C(C)[C@@H](O)[C@H]5OC/C(=C\C=C\C3C)[C@]54O)C[C@@H]2OC)C[C@@H]1OC (some centres unmarked) [1.110]
more than 80%: all assays above

CCOP(=O)(CCC(C)NC1C(C)OC(OC2C(C)OC(OC3C(C)=CCC4CC(CC5(C=CC(C)C(C(C)CC)O5)O4)OC(=O)C4C=C(C)C(O)C5OCC(=CC=CC3C)C45O)CC2OC)CC1OC)OCC (centres unmarked) [1.124]
more than 80%: all assays above

CCC(C)C1OC2(C=CC1C)CC1CC(CC=C(C)C(OC3CC(OC)C(OC4CC(OC)C(N(C)Cc5cccc(F)c5F)C(C)O4)C(C)O3)C(C)C=CC=C3COC4C(O)C(C)=CC(C(=O)O1)C34O)O2 (centres unmarked) [2.048]
more than 80%: all assays above

CCC(C)C1OC2(C=CC1C)CC1CC(CC=C(C)C(OC3CC(OC)C(OC4CC(OC)C(N(C)Cc5ccc(Cl)c(Cl)c5)C(C)O4)C(C)O3)C(C)C=CC=C3COC4C(O)C(C)=CC(C(=O)O1)C34O)O2 (centres unmarked) [2.043]
more than 80%: all assays above

CCC(C)[C@H]1O[C@]2(C=C[C@@H]1C)C[C@@H]1C[C@@H](C/C=C(\C)[C@@H](O[C@H]3C[C@H](OC)[C@@H](O[C@H]4C[C@H](OC)[C@H](NC(C)CN(CC)CC)[C@H](C)O4)[C@H](C)O3)C(C)/C=C/C=C3\CO[C@@H]4[C@H](O)C(C)=C[C@@H](C(=O)O1)[C@]34O)O2 (some centres unmarked) [1.112]
more than 80%: all assays above

CCC(C)[C@H]1O[C@]2(C=C[C@@H]1C)C[C@@H]1C[C@@H](C/C=C(\C)[C@@H](O[C@H]3C[C@H](OC)[C@@H](O[C@H]4C[C@H](OC)[C@H](N(C)Cc5ccc(-c6ccccc6C#N)cc5)[C@H](C)O4)[C@H](C)O3)C(C)/C=C/C=C3\CO[C@@H]4[C@H](O)C(C)=C[C@@H](C(=O)O1)[C@]34O)O2 (some centres unmarked) [2.081]
more than 80%: all assays above

CCC(C)C1OC2(C=CC1C)CC1CC(CC=C(C)C(OC3CC(OC)C(OC4CC(OC)C(N(C)Cc5cc(F)ccc5Br)C(C)O4)C(C)O3)C(C)C=CC=C3COC4C(O)C(C)=CC(C(=O)O1)C34O)O2 (centres unmarked) [2.039]
more than 80%: all assays above

CCC(C)C1OC2(C=CC1C)CC1CC(CC=C(C)C(OC3CC(OC)C(OC4CC(OC)C(N(C)Cc5c(F)ccc(F)c5F)C(C)O4)C(C)O3)C(C)C=CC=C3COC4C(O)C(C)=CC(C(=O)O1)C34O)O2 (centres unmarked) [2.037]
more than 80%: all assays above

CCC(C)C1OC2(C=CC1C)CC1CC(CC=C(C)C(OC3CC(OC)C(OC4CC(OC)C(N(C)Cc5cccc(F)c5)C(C)O4)C(C)O3)C(C)C=CC=C3COC4C(O)C(C)=CC(C(=O)O1)C34O)O2 (centres unmarked) [2.053]
more than 80%: all assays above

CCC(C)[C@H]1O[C@]2(C=C[C@@H]1C)C[C@@H]1C[C@@H](C/C=C(\C)[C@@H](O[C@H]3C[C@H](OC)[C@@H](O[C@H]4C[C@H](OC)[C@H](N5CCC(O)C5)[C@H](C)O4)[C@H](C)O3)C(C)/C=C/C=C3\CO[C@@H]4[C@H](O)C(C)=C[C@@H](C(=O)O1)[C@]34O)O2 (some centres unmarked) [3.011]
more than 80%: Spodoptera littoralis [1] | Tetranychus urticae | Spodoptera littoralis [2]

CCC(C)C1OC2(C=CC1C)CC1CC(CC=C(C)C(OC3CC(OC)C(OC4CC(OC)C(N(C)Cc5cccc(Cl)c5F)C(C)O4)C(C)O3)C(C)C=CC=C3COC4C(O)C(C)=CC(C(=O)O1)C34O)O2 (centres unmarked) [2.044]
more than 80%: all assays above

CCC(C)C1OC2(C=CC1C)CC1CC(CC=C(C)C(OC3CC(OC)C(OC4CC(OC)C(NC5CCCCCCCCCCC5)C(C)O4)C(C)O3)C(C)C=CC=C3COC4C(O)C(C)=CC(C(=O)O1)C34O)O2 (centres unmarked) [1.036]
more than 80%: all assays above

CCOC(=O)CCC(C(=O)OCC)C(C)NC1C(C)OC(OC2C(C)OC(OC3C(C)=CCC4CC(CC5(C=CC(C)C(C(C)CC)O5)O4)OC(=O)C4C=C(C)C(O)C5OCC(=CC=CC3C)C45O)CC2OC)CC1OC (centres unmarked) [1.146]
more than 80%: Spodoptera littoralis [1] | Tetranychus urticae | Spodoptera littoralis [2]

CCC(C)C1OC2(C=CC1C)CC1CC(CC=C(C)C(OC3CC(OC)C(OC4CC(OC)C(NC(C)C(=O)OC)C(C)O4)C(C)O3)C(C)C=CC=C3COC4C(O)C(C)=CC(C(=O)O1)C34O)O2 (centres unmarked) [1.062]
more than 80%: Spodoptera littoralis [1] | Tetranychus urticae | Spodoptera littoralis [2]

CCC(C)[C@H]1O[C@]2(C=C[C@@H]1C)C[C@@H]1C[C@@H](C/C=C(\C)[C@@H](O[C@H]3C[C@H](OC)[C@@H](O[C@H]4C[C@H](OC)[C@H](N(C)Cc5cccc(C)c5F)[C@H](C)O4)[C@H](C)O3)C(C)/C=C/C=C3\CO[C@@H]4[C@H](O)C(C)=C[C@@H](C(=O)O1)[C@]34O)O2 (some centres unmarked) [2.069]
more than 80%: all assays above

CCC(C)[C@H]1O[C@]2(C=C[C@@H]1C)C[C@@H]1C[C@@H](C/C=C(\C)[C@@H](O[C@H]3C[C@H](OC)[C@@H](O[C@H]4C[C@H](OC)[C@H](N(C)Cc5cc(C)cc(C)c5)[C@H](C)O4)[C@H](C)O3)C(C)/C=C/C=C3\CO[C@@H]4[C@H](O)C(C)=C[C@@H](C(=O)O1)[C@]34O)O2 (some centres unmarked) [2.075]
more than 80%: all assays above

CCC(C)C1OC2(C=CC1C)CC1CC(CC=C(C)C(OC3CC(OC)C(OC4CC(OC)C(N(C)CC(=O)NC(C)C(=O)OCc5ccccc5)C(C)O4)C(C)O3)C(C)C=CC=C3COC4C(O)C(C)=CC(C(=O)O1)C34O)O2 (centres unmarked) [2.024]
more than 80%: Spodoptera littoralis [1] | Tetranychus urticae | Spodoptera littoralis [2]

CCC(C)[C@H]1O[C@]2(C=C[C@@H]1C)C[C@@H]1C[C@@H](C/C=C(\C)[C@@H](O[C@H]3C[C@H](OC)[C@@H](O[C@H]4C[C@H](OC)[C@H](N(C)Cc5ccccc5-c5ccccc5)[C@H](C)O4)[C@H](C)O3)C(C)/C=C/C=C3\CO[C@@H]4[C@H](O)C(C)=C[C@@H](C(=O)O1)[C@]34O)O2 (some centres unmarked) [2.079]
more than 80%: all assays above

CCC(C)C1OC2(C=CC1C)CC1CC(CC=C(C)C(OC3CC(OC)C(OC4CC(OC)C(N(C)Cc5c(Cl)cccc5Cl)C(C)O4)C(C)O3)C(C)C=CC=C3COC4C(O)C(C)=CC(C(=O)O1)C34O)O2 (centres unmarked) [2.041]
more than 80%: Spodoptera littoralis [1] | Tetranychus urticae | Spodoptera littoralis [2]

CCC(C)[C@H]1O[C@]2(C=C[C@@H]1C)C[C@@H]1C[C@@H](C/C=C(\C)[C@@H](O[C@H]3C[C@H](OC)[C@@H](O[C@H]4C[C@H](OC)[C@H](NC5CCCC5C(=O)OC)[C@H](C)O4)[C@H](C)O3)C(C)/C=C/C=C3\CO[C@@H]4[C@H](O)C(C)=C[C@@H](C(=O)O1)[C@]34O)O2 (some centres unmarked) [1.106]
more than 80%: Spodoptera littoralis [1] | Tetranychus urticae | Spodoptera littoralis [2]
